Results from article PMC7925512.
Results are given in words; binding and its absence hold for the method and conditions named. In cells and extracts the contact can be indirect. Some entries that bind do so weakly or less than the wild type. For some assays here: Tags and fused reporters may be left off the sequences shown. One block for each binder: values may come before it.

The chains behind the UniProt entries cited, without tags or fusion partners.
UniProt Q9DBY1: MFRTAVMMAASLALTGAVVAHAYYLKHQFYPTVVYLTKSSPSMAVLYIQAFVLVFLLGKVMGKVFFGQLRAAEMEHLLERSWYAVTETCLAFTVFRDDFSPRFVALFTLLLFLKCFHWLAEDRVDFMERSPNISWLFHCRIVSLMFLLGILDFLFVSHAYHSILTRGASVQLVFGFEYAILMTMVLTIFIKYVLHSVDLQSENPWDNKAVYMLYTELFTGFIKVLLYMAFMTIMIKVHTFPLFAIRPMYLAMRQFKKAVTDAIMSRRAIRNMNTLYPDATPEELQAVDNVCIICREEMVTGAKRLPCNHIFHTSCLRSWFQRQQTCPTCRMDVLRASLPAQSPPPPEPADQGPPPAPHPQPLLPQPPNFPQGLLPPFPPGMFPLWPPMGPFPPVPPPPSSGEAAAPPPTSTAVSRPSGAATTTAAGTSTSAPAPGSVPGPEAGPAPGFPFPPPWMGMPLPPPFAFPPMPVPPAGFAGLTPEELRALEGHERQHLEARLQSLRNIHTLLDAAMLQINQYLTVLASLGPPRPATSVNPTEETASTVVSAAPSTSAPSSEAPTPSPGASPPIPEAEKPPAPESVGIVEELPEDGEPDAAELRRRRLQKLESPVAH
UniProt Q86TM6: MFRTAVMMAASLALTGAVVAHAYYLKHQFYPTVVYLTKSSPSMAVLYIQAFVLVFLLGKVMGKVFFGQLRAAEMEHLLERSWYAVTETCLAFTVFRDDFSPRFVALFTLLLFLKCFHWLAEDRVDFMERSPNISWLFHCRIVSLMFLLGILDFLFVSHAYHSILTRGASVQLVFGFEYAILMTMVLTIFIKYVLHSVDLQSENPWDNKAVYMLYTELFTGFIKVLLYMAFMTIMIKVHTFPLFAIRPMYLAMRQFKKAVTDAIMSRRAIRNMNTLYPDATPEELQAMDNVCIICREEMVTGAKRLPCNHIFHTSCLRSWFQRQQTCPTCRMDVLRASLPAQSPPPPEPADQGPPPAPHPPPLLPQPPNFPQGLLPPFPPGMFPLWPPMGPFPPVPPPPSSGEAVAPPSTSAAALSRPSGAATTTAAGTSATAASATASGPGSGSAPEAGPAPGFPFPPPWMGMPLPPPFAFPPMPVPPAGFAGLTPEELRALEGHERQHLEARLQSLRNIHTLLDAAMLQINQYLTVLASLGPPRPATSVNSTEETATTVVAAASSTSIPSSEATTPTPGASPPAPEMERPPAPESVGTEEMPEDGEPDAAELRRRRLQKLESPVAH

Columns and labels:
[1] = biological target: HRD1 (mouse (endogenous in TCMK-1)) (UniProt Q9DBY1); assay: co-IP; endogenous proteins in lysate of H/R-exposed TCMK-1 cells; 1 mg total protein lysate with antibodies against specific proteins or rabbit polyclonal IgG control, 4 h at 4 °C, Protein A/G Plus-Agarose, western blot
human Flag-HRD1 (human) = human Flag-HRD1 (human) (UniProt Q86TM6); assay: co-IP; called an in vitro binding assay; HA-tagged ubiquitin, Flag-tagged HRD1 and His-tagged NRF2 or its deletion mutants, immunoprecipitated from HEK-293T cells

binding [1]: binds
B1: nuclear factor erythroid 2-related factor 2 (NRF2) (protein, UniProt Q60795 1-597)
chain: MMDLELPPPGLQSQQDMDLIDILWRQDIDLGVSREVFDFSQRQKDYELEKQKKLEKERQEQLQKEQEKAFFAQFQLDEETGEFLPIQPAQHIQTDTSGSASYSQVAHIPKQDALYFEDCMQLLAETFPFVDDHESLALDIPSHAESSVFTAPHQAQSLNSSLEAAMTDLSSIEQDMEQVWQELFSIPELQCLNTENKQLADTTAVPSPEATLTEMDSNYHFYSSISSLEKEVGNCGPHFLHGFEDSFSSILSTDDASQLTSLDSNPTLNTDFGDEFYSAFIAEPSDGGSMPSSAAISQSLSELLDGTIEGCDLSLCKAFNPKHAEGTMEFNDSDSGISLNTSPSRASPEHSVESSIYGDPPPGFSDSEMEELDSAPGSVKQNGPKAQPAHSPGDTVQPLSPAQGHSAPMRESQCENTTKKEVPVSPGHQKAPFTKDKHSSRLEAHLTRDELRAKALHIPFPVEKIINLPVDDFNEMMSKEQFNEAQLALIRDIRRRGKNKVAAQNCRKRKLENIVELEQDLGHLKDEREKLLREKGENDRNLHLLKRRLSTLYLEVFSMLRDEDGKPYSPSEYSLQQTRDGNVFLVPKSKKPDTKKN

binding (human Flag-HRD1 (human)): binds
B2: human His-NRF2 (protein, UniProt Q16236-2 1-589)
chain: MDLIDILWRQDIDLGVSREVFDFSQRRKEYELEKQKKLEKERQEQLQKEQEKAFFAQLQLDEETGEFLPIQPAQHIQSETSGSANYSQVAHIPKSDALYFDDCMQLLAQTFPFVDDNEVSSATFQSLVPDIPGHIESPVFIATNQAQSPETSVAQVAPVDLDGMQQDIEQVWEELLSIPELQCLNIENDKLVETTMVPSPEAKLTEVDNYHFYSSIPSMEKEVGNCSPHFLNAFEDSFSSILSTEDPNQLTVNSLNSDATVNTDFGDEFYSAFIAEPSISNSMPSPATLSHSLSELLNGPIDVSDLSLCKAFNQNHPESTAEFNDSDSGISLNTSPSVASPEHSVESSSYGDTLLGLSDSEVEELDSAPGSVKQNGPKTPVHSSGDMVQPLSPSQGQSTHVHDAQCENTPEKELPVSPGHRKTPFTKDKHSSRLEAHLTRDELRAKALHIPFPVEKIINLPVVDFNEMMSKEQFNEAQLALIRDIRRRGKNKVAAQNCRKRKLENIVELEQDLDHLKDEKEKLLKEKGENDKSLHLLKKQLSTLYLEVFSMLRDEDGKPYSPSEYSLQQTRDGNVFLVPKSKKPDVKKN
